# Reference: the supplement of paper PMC7411640
# Where a name gives a salt, the structure may show the parent alone. This is one part of the list. Most values lie within the scatter of the assay; repeated measurements hardly agree.
# Test system: MDA-MB-468
# Experiment: phospho-S6 immunofluorescence (DAPI-normalised), per-plate z-score; higher = higher phospho-S6 signal (less pathway suppression)
# Settings: 24 h
# Method: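 GPCR-targeted compound library (MedChemExpress HY-L006) tested on MDA-MB-468 PTEN-null TNBC cells in 384-well plates at 0.1, 1 or 10 uM, combined with vehicle, GDC0941 450 nM or lapatinib 1 uM, for 24 h. Phospho-S6 (S240/244) immunofluorescence normalised to DAPI and expressed as a per-plate z-score; values are the mean of biological triplicates.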
# [1] = compound 0.1 µM, co-treatment: GDC0941 450 nM
# [2] = compound 0.1 µM, co-treatment: lapatinib 1 uM
# [3] = compound 0.1 µM, co-treatment: vehicle
# [4] = compound 1 µM, co-treatment: GDC0941 450 nM
# [5] = compound 1 µM, co-treatment: lapatinib 1 uM
# [6] = compound 1 µM, co-treatment: vehicle
# [7] = compound 10 µM, co-treatment: GDC0941 450 nM
# [8] = compound 10 µM, co-treatment: lapatinib 1 uM
# [9] = compound 10 µM, co-treatment: vehicle
SMILES,phospho-S6 immunofluorescence (z-score) [1],phospho-S6 immunofluorescence (z-score) [2],phospho-S6 immunofluorescence (z-score) [3],phospho-S6 immunofluorescence (z-score) [4],phospho-S6 immunofluorescence (z-score) [5],phospho-S6 immunofluorescence (z-score) [6],phospho-S6 immunofluorescence (z-score) [7],phospho-S6 immunofluorescence (z-score) [8],phospho-S6 immunofluorescence (z-score) [9]
CN1CCN2c3c(cccc31)[C@@H]1CN(CCCC(=O)c3ccc(F)cc3)CC[C@@H]12 [lumateperone (Tosylate)],-7.46,-3.9,-5.01,-6.1,-7.97,-6.43,-3.44,-3.22,-5.62
Nc1nc(-c2nn(Cc3ccccc3F)c3ncccc23)ncc1C1CC1,-0.85,0.14,-1.18,1.91,3.72,-0.61,1.07,2.78,-0.52
NC[C@H](O)c1ccc(O)c(O)c1 [Norepinephrine (bitartrate monohydrate)],0.22,1.3,-0.17,0.89,2,0.73,0.52,1.81,0.17
CCOC(=O)c1ccc(-n2cc(Cc3cnc(OCC)nc3)c(=O)nc2SCc2ccc(F)cc2)cc1,-0.48,-0.32,-0.92,-2.04,-0.07,-1.34,-3.26,-3.79,-4.85
CCC1(c2c[nH]cn2)Cc2ccccc2C1 [Atipamezole (hydrochloride)],-0.07,-0.62,0.31,-1.15,-1.25,1.16,-0.61,0.37,1.24
COC(=O)N(C)c1c(N)nc(-c2nn(Cc3ccccc3F)c3ncccc23)nc1N [Riociguat],-1.04,-0.85,-0.85,-1.06,-0.1,-0.74,-0.84,0.03,-0.56
C[C@H](N)[C@H](O)c1cccc(O)c1 [Metaraminol (tartrate)],2.37,0.17,1.27,0.96,0.07,1.27,0.64,0.89,0.73
COc1cc(C(=O)NS(=O)(=O)c2ccccc2C)ccc1Cc1cn(C)c2ccc(NC(=O)OC3CCCC3)cc12 [Zafirlukast],0.63,0.89,1.29,0.44,1.1,1.31,-2.01,-0.41,0.19
CCCCCCCCOc1ccccc1C(=O)Nc1ccc(C(=O)OCC[N+](C)(CC)CC)cc1 [Otilonium (bromide)],0,0.04,-0.18,1.3,0.83,-0.39,-1.43,2.8,0.94
CCC(=O)NCC[C@@H]1CCc2ccc3c(c21)CCO3 [Ramelteon],0.1,-1.43,-0.49,0.02,-0.6,-0.79,-0.04,-0.4,0.21
Cc1nc(C#Cc2cccnc2)cs1 [MTEP (hydrochloride)],-0.39,0.83,-1.45,-1.01,-0.05,-0.34,-0.31,-0.65,-0.75
Cc1ccccc1N1CCN(CCc2nnc3n2CCCC3)CC1 [Dapiprazole (hydrochloride)],-0.73,0.66,-0.23,-0.6,0.73,0.49,0.31,-0.49,-0.32
CN(C)CCC=C1c2ccccc2C=Cc2ccccc21 [Cyclobenzaprine (hydrochloride)],-0.56,0.41,-0.31,-0.19,-0.29,-1.09,0.8,-0.8,-0.18
Cc1cc(O[C@@H](CCC(F)(F)F)c2ccc(C(=O)NCCC(=O)O)cc2)cc(C)c1-c1ccc(C(C)(C)C)cc1 [Adomeglivant],0.71,-0.67,1.32,-1.3,-0.27,0.76,-4.72,-7.2,-6.79
CCc1cc2c(cc1CC)CC(NC[C@H](O)c1ccc(O)c3[nH]c(=O)ccc13)C2 [Indacaterol (maleate)],1.6,1.9,1.07,0.62,1.63,1.64,-0.81,-1.41,0.92
C[C@H]1CN(C[C@H](Cc2ccccc2)C(=O)NCC(=O)O)CC[C@@]1(C)c1cccc(O)c1 [Alvimopan (dihydrate)],-1.14,0.12,-1.88,-1.42,-0.34,-1.67,-0.22,0.49,-0.86
COc1cc(N)c(Cl)cc1C(=O)NC1CCN(CCCOc2ccc(F)cc2)CC1OC (stereo unspecified) [Cisapride],-0.53,-0.81,-0.59,-0.05,-0.59,-0.11,-1.02,-1.88,-0.58
Cc1nn(C)c2c1C(c1ccc(C(F)(F)F)cc1)C(C#N)=C(N)O2 (stereo unspecified),0.72,-0.16,0.23,0.14,0.19,0.13,-1.17,2.28,2.57
COc1cc(C(C)=O)ccc1OCCCN1CCC(c2noc3cc(F)ccc23)CC1 [Iloperidone],1.24,-0.23,-0.07,-0.48,0.27,-0.7,0.52,-0.23,0.38

# Arranged by heavy-atom count (smallest number first): 3 of the compounds above
SMILES,phospho-S6 immunofluorescence (z-score) [1],phospho-S6 immunofluorescence (z-score) [2],phospho-S6 immunofluorescence (z-score) [3],phospho-S6 immunofluorescence (z-score) [4],phospho-S6 immunofluorescence (z-score) [5],phospho-S6 immunofluorescence (z-score) [6],phospho-S6 immunofluorescence (z-score) [7],phospho-S6 immunofluorescence (z-score) [8],phospho-S6 immunofluorescence (z-score) [9]
NC[C@H](O)c1ccc(O)c(O)c1 [Norepinephrine (bitartrate monohydrate)],0.22,1.3,-0.17,0.89,2,0.73,0.52,1.81,0.17
CN1CCN2c3c(cccc31)[C@@H]1CN(CCCC(=O)c3ccc(F)cc3)CC[C@@H]12 [lumateperone (Tosylate)],-7.46,-3.9,-5.01,-6.1,-7.97,-6.43,-3.44,-3.22,-5.62
COC(=O)N(C)c1c(N)nc(-c2nn(Cc3ccccc3F)c3ncccc23)nc1N [Riociguat],-1.04,-0.85,-0.85,-1.06,-0.1,-0.74,-0.84,0.03,-0.56
